Results: paper doi:10.1101/2025.06.14.659695

Chains of the proteins cited; added tags and fusions are not shown. Residues count along the entry.
UniProt O14786, residues 22-923: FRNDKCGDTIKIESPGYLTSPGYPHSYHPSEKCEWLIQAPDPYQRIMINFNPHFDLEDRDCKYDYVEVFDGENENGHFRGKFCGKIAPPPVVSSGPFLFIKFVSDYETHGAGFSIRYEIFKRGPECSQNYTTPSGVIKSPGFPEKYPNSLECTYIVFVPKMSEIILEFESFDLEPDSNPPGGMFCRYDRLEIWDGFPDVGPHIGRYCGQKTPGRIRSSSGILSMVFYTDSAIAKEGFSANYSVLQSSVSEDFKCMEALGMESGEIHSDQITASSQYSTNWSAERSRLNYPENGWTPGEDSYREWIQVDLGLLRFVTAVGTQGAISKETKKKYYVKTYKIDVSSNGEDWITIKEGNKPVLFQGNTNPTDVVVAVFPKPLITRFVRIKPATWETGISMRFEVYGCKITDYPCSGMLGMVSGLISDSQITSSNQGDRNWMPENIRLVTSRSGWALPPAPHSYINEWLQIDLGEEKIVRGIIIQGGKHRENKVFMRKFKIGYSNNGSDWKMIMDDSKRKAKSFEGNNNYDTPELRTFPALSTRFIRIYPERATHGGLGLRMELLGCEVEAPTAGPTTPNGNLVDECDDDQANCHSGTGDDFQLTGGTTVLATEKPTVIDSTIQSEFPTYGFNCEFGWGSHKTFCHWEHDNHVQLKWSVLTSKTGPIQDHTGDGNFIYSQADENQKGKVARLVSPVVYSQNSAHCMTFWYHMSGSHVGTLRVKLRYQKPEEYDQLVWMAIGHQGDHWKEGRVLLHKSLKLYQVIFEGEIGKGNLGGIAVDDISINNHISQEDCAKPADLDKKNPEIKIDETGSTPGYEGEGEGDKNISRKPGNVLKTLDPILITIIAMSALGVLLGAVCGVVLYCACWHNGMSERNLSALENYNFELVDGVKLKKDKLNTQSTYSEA

Key:
Assay in all cases: proximity labelling
[1] = target: neuropilin-1 (human (endogenous in PPC1)) (UniProt O14786)
[2] = target: neuropilin-1 (human (endogenous in PPC1)) (UniProt O14786); remark: listed apart in the source
[3] = target: neuropilin-1 (human (endogenous in PPC1)) (UniProt O14786); remark: listed apart in the source

Measured: binding

B1: RPAR-HRP: Biotin-ahx-RPARPAR-OH on streptavidin–horseradish peroxidase (peptide)
peptide: RPARPAR
modifications: biotin-ahx on the N-terminus; free C-terminus (-OH)
binds: [1] | [2] | [3]

Read-outs that look alike come from different tables or passages of the source. No constants are given. Whether binding was seen depends on the method and setting. In cells and extracts the contact can be indirect. A yes stands for co-enrichment or nearness to the bait. Other partners may have been found.
